Laboratory results: publication PMC10950228

The chains behind the UniProt entries cited, without tags or fusion partners.
UniProt P51587: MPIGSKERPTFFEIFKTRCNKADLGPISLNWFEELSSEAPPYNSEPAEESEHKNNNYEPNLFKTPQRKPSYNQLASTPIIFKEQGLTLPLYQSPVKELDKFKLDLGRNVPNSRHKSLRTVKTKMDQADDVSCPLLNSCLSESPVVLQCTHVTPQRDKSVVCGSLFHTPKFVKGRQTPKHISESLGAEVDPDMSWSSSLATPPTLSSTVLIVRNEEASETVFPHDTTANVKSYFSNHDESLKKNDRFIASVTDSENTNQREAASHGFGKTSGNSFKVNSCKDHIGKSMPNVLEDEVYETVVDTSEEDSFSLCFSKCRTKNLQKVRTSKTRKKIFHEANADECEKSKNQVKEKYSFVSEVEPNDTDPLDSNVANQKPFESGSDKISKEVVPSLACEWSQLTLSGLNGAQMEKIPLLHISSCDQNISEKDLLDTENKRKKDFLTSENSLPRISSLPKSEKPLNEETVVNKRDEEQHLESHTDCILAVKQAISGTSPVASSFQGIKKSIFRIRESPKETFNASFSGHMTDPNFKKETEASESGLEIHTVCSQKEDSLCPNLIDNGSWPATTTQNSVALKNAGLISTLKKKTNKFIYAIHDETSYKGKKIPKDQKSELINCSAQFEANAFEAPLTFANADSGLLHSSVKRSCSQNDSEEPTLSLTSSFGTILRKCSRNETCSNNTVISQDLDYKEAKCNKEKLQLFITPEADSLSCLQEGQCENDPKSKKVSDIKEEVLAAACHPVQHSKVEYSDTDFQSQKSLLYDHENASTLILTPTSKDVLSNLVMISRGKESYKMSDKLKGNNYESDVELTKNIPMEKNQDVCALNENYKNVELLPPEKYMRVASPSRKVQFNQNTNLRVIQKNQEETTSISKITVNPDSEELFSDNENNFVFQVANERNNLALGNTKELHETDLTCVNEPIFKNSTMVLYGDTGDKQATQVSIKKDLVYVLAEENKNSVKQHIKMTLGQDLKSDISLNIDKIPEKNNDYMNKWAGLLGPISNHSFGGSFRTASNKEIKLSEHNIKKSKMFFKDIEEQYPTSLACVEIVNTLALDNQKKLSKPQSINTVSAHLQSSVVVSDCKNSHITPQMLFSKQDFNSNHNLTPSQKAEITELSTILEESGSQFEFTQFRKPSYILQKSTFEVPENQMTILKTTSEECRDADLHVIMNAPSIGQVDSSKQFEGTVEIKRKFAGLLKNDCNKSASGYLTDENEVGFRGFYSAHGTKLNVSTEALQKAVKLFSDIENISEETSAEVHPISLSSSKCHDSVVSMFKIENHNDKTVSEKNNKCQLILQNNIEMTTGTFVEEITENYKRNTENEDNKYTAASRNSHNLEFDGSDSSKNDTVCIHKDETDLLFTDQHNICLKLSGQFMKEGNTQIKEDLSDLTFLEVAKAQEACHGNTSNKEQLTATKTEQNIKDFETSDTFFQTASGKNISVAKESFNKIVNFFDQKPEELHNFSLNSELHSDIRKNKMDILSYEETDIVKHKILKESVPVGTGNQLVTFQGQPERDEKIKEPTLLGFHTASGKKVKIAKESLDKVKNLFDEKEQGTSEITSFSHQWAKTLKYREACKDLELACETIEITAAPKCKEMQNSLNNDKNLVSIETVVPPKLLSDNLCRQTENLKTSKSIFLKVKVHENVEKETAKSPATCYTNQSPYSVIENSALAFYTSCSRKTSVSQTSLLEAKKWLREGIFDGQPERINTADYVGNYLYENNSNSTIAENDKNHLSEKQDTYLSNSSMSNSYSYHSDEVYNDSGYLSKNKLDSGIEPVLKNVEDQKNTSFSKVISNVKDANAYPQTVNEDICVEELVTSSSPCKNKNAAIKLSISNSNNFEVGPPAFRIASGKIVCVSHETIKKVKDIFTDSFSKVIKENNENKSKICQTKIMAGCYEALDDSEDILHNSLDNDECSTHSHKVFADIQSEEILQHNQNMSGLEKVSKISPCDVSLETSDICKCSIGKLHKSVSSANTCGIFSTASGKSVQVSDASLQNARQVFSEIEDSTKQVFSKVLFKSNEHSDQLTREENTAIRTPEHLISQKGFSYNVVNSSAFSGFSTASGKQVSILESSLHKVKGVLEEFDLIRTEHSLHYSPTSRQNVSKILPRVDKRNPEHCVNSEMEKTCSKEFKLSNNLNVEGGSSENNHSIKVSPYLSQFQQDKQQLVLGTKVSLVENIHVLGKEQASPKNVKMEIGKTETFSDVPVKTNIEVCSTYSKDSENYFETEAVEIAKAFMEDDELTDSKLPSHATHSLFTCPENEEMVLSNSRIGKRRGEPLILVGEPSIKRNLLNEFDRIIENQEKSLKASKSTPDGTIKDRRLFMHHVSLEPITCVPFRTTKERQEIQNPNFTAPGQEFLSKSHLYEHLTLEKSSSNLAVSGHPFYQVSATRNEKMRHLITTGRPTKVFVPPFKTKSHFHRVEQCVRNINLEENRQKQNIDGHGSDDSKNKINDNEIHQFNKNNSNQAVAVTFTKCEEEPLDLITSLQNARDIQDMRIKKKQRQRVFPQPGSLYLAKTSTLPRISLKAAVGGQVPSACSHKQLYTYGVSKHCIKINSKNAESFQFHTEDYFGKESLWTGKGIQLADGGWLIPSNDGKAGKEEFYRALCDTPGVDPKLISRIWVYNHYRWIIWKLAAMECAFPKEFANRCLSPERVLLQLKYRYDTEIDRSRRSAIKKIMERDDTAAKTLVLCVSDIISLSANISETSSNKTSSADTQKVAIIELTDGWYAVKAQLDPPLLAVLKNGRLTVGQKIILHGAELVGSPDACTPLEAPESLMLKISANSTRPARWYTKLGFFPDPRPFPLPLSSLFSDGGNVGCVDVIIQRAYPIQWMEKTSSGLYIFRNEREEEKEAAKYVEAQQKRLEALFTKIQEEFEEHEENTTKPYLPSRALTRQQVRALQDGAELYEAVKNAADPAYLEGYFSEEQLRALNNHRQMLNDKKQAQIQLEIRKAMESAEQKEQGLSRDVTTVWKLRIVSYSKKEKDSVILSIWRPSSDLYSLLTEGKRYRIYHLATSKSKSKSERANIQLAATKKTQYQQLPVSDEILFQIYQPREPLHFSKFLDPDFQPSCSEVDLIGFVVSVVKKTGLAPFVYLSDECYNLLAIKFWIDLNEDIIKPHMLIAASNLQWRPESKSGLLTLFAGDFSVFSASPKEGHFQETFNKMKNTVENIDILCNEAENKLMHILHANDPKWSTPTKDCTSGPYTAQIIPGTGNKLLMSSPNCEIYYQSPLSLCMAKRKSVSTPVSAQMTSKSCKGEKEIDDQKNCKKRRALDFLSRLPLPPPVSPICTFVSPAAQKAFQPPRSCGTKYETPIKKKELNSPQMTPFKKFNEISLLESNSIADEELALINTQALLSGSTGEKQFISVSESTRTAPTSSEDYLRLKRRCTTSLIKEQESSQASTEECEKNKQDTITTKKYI
UniProt Q9BXW9: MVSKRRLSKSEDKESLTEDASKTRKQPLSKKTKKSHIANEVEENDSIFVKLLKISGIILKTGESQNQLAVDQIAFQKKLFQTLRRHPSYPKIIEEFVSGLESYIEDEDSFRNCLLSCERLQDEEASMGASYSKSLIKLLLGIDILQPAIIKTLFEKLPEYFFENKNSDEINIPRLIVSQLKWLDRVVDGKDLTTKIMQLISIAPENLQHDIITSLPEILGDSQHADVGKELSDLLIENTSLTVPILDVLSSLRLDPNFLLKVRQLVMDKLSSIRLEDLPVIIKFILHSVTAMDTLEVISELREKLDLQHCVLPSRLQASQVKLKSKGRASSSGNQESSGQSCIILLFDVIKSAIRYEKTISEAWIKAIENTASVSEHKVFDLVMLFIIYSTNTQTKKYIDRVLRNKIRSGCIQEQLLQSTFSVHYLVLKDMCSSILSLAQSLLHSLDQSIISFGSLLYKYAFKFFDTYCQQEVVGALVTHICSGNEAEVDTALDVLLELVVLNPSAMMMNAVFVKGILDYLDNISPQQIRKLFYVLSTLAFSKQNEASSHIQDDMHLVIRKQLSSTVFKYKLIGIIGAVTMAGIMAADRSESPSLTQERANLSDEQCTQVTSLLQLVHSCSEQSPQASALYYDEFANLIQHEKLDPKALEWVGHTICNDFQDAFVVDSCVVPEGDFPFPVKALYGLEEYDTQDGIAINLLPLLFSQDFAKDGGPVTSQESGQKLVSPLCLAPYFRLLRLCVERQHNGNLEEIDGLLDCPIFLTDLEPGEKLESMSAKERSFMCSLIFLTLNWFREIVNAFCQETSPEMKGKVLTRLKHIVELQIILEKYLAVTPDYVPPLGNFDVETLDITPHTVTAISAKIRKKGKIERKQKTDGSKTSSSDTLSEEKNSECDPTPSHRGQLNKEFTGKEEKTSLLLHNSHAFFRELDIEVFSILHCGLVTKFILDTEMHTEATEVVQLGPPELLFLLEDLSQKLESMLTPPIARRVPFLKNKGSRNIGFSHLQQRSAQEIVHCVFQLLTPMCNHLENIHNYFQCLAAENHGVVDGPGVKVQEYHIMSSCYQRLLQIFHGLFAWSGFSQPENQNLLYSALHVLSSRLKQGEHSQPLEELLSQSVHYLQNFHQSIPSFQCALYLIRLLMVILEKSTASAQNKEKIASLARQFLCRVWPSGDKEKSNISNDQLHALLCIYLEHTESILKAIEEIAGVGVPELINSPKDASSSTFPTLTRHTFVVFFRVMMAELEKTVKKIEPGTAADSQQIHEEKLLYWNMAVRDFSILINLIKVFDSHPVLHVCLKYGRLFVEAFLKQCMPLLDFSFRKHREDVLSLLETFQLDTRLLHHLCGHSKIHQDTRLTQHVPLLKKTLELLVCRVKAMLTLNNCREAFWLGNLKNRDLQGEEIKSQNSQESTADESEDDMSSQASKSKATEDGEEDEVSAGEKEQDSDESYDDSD
UniProt Q9NVI1: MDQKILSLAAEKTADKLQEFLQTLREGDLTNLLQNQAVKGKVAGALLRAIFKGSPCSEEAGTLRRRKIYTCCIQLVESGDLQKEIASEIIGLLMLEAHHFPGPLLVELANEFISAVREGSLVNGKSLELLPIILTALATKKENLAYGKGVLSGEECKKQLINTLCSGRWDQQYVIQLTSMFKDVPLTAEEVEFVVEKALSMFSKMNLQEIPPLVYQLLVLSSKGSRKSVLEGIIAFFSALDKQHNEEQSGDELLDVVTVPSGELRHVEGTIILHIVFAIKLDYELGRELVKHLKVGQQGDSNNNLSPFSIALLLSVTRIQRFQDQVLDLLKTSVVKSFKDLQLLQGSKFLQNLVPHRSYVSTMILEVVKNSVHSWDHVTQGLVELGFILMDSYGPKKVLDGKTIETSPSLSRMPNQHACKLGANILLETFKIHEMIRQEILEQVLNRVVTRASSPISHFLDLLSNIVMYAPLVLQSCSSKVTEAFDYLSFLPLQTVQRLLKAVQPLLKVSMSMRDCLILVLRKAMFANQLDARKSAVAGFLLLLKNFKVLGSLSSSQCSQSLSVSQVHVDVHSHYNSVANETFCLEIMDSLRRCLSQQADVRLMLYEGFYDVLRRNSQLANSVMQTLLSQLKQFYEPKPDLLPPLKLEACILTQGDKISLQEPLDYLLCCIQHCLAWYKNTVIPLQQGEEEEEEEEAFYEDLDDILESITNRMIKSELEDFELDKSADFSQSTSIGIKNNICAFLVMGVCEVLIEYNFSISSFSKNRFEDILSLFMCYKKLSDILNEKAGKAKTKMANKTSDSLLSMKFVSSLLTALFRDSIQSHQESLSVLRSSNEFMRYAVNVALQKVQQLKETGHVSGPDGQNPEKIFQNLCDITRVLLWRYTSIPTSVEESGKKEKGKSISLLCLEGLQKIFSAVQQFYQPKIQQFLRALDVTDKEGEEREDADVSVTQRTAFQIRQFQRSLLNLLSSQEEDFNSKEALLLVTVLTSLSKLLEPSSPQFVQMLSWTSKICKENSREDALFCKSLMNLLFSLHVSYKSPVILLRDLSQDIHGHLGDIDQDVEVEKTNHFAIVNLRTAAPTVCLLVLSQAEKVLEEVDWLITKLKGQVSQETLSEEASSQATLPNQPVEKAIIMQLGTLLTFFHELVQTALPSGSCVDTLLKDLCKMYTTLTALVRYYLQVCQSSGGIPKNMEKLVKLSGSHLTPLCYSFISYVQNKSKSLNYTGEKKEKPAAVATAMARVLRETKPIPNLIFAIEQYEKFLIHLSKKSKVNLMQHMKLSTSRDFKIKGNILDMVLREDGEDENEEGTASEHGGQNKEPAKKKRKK

Biological target: T1, SFB-RFWD3 C315A (human) (UniProt Q6PCD5)
T1 sequence: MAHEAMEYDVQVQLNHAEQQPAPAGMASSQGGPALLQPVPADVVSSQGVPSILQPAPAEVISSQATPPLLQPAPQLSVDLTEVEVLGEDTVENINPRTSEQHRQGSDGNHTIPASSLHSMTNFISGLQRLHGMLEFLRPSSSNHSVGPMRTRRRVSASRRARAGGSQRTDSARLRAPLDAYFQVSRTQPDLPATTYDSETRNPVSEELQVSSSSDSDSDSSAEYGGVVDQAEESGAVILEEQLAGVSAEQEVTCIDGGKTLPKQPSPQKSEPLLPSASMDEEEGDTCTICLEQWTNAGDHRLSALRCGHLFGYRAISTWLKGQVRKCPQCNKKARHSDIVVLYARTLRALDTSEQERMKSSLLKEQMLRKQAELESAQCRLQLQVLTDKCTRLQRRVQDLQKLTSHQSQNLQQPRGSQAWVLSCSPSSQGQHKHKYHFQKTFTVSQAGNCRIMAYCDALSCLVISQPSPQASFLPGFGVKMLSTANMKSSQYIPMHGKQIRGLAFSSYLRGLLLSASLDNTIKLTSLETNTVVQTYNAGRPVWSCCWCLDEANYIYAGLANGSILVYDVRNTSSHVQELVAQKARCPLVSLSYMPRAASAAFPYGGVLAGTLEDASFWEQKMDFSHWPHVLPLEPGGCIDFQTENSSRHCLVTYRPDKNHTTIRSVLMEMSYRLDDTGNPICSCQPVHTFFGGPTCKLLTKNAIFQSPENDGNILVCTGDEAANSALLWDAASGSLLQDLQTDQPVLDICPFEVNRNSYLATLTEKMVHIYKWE
Assay: affinity purification with mass spectrometry; duplicate large-scale streptavidin pulldowns of SFB-RFWD3 C315A (and C315A/I639K; SFB-GFP as negative control) from HU-treated HEK293T cells, in the presence of benzonase; MaxQuant and SAINT analysis

BLM (from UniProt P54132 1-1417)
binding: binds

BRCA2/FANCD1 (from UniProt P51587 1-3418)
binding: binds

FANCD2 (from UniProt Q9BXW9 1-1451)
binding: binds

FANCI (from UniProt Q9NVI1 1-1328)
binding: binds

B1: endogenous SMARCAL1 (protein, UniProt Q9NZC9 1-954)
chain: MSLPLTEEQRKKIEENRQKALARRAEKLLAEQHQRTSSGTSIAGNPFQAKQGPSQNFPRESCKPVSHGVIFKQQNLSSSSNADQRPHDSHSFQAKGIWKKPEEMPTACPGHSPRSQMALTGISPPLAQSPPEVPKQQLLSYELGQGHAQASPEIRFTPFANPTHKPLAKPKSSQETPAHSSGQPPRDAKLEAKTAKASPSGQNISYIHSSSESVTPRTEGRLQQKSGSSVQKGVNSQKGKCVRNGDRFQVLIGYNAELIAVFKTLPSKNYDPDTKTWNFSMNDYSALMKAAQSLPTVNLQPLEWAYGSSESPSTSSEGQAGLPSAPSLSFVKGRCMLISRAYFEADISYSQDLIALFKQMDSRRYDVKTRKWSFLLEEHSKLIAKVRCLPQVQLDPLPTTLTLAFASQLKKTSLSLTPDVPEADLSEVDPKLVSNLMPFQRAGVNFAIAKGGRLLLADDMGLGKTIQAICIAAFYRKEWPLLVVVPSSVRFTWEQAFLRWLPSLSPDCINVVVTGKDRLTAGLINIVSFDLLSKLEKQLKTPFKVVIIDESHFLKNSRTARCRAAMPVLKVAKRVILLSGTPAMSRPAELYTQIIAVKPTFFPQFHAFGLRYCDAKRMPWGWDYSGSSNLGELKLLLEEAVMLRRLKSDVLSQLPAKQRKIVVIAPGRINARTRAALDAAAKEMTTKDKTKQQQKDALILFFNRTAEAKIPSVIEYILDLLESGREKFLVFAHHKVVLDAITQELERKHVQHIRIDGSTSSAEREDLCQQFQLSERHAVAVLSITAANMGLTFSSADLVVFAELFWNPGVLIQAEDRVHRIGQTSSVGIHYLVAKGTADDYLWPLIQEKIKVLAEAGLSETNFSEMTESTDYLYKDPKQQKIYDLFQKSFEKEGSDMELLEAAESFDPGSASGTSGSSSQNMGDTLDESSLTASPQKKRRFEFFDNWDSFTSPL
binding: binds

These are yes or no findings as the source states them, for the method shown. Binding seen in cells or lysates may run through a third protein. A yes stands for co-enrichment or nearness to the bait. Other partners may have been found.
